# Source: publication doi:10.1101/796524
# No constants are given. Whether binding was seen depends on the method and setting. Some results given as binding are weak or reduced against the parent protein; the word gives no strength.
# Biological target: T1, XPF (human) (UniProt Q92889)
# T1 sequence: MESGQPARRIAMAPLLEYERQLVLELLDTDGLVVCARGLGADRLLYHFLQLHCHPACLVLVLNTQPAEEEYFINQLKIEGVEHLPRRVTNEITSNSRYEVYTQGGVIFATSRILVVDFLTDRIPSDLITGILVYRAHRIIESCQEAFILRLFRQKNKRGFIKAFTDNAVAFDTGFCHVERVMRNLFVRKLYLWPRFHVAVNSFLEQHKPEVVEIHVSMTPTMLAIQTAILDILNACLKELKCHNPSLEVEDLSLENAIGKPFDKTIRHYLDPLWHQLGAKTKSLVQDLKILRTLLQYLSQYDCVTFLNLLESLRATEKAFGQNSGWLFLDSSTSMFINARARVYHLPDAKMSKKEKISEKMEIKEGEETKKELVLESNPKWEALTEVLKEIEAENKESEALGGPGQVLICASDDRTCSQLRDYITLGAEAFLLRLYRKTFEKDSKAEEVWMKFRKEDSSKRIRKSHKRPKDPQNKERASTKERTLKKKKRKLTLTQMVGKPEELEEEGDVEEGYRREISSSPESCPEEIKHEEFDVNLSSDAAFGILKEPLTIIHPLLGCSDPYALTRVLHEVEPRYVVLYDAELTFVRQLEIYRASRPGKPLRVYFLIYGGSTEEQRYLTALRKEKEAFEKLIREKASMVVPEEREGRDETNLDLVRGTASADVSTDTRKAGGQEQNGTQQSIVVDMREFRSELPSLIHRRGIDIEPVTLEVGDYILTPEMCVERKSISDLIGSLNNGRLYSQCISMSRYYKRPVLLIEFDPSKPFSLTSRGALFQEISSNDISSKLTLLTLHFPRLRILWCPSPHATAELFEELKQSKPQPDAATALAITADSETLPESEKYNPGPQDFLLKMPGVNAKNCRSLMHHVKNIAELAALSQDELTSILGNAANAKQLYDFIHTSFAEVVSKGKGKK
# Experiment: co-purification
binder,measurement,value
"SLX4 NTD (residues 1-758) (domain or fragment, UniProt Q8IY92-1 1-758) MKLSVNEAQLGFYLGSLSHLSACPGIDPRSSEDQPESLKTGQMMDESDEDFKELCASFFQRVKKHGIKEVSGERKTQKAASNGTQIRSKLKRTKQTATKTKTLQGPAEKKPPSGSQAPRTKKQRVTKWQASEPAHSVNGEGGVLASAPDPPVLRETAQNTQTGNQQEPSPNLSREKTRENVPNSDSQPPPSCLTTAVPSPSKPRTAQLVLQRMQQFKRADPERLRHASEECSLEAAREENVPKDPQEEMMAGNVYGLGPPAPESDAAVALTLQQEFARVGASAHDDSLEEKGLFFCQICQKNLSAMNVTRREQHVNRCLDEAEKTLRPSVPQIPECPICGKPFLTLKSRTSHLKQCAVKMEVGPQLLLQAVRLQTAQPEGSSSPPMFSFSDHSRGLKRRGPTSKKEPRKRRKVDEAPSEDLLVAMALSRSEMEPGAAVPALRLESAFSERIRPEAENKSRKKKPPVSPPLLLVQDSETTGRQIEDRVALLLSEEVELSSTPPLPASRILKEGWERAGQCPPPPERKQSFLWEGSALTGAWAMEDFYTARLVPPLVPQRPAQGLMQEPVPPLVPPEHSELSERRSPALHGTPTAGCGSRGPSPSASQREHQALQDLVDLAREGLSASPWPGSGGLAGSEGTAGLDVVPGGLPLTGFVVPSQDKHPDRGGRTLLSLGLLVADFGAMVNNPHLSDVQFQTDSGEVLYAHKFVLYARCPLLIQYVNNEGFSAVEDGVLTQRVLLGDVSTEAARTFLHYLYTA",binding,binds
